In publication PMC12871931, “The importin‐alpha superfamily engages in ethylene signaling by shuttling ETHYLENE INSENSITIVE 2 from the endoplasmic reticulum to the nucleus” (The Febs Journal, 2025):
Results are given in words; binding and its absence hold for the method and conditions named. For some assays here: Binding seen in cells or lysates may run through a third protein. Some binding calls cover weakened binding; strength is not graded here. For some assays here: Tags and fused reporters may be left off the sequences shown.

By UniProt entry, the sequences of proteins in these tests, tags left out.
UniProt Q96321: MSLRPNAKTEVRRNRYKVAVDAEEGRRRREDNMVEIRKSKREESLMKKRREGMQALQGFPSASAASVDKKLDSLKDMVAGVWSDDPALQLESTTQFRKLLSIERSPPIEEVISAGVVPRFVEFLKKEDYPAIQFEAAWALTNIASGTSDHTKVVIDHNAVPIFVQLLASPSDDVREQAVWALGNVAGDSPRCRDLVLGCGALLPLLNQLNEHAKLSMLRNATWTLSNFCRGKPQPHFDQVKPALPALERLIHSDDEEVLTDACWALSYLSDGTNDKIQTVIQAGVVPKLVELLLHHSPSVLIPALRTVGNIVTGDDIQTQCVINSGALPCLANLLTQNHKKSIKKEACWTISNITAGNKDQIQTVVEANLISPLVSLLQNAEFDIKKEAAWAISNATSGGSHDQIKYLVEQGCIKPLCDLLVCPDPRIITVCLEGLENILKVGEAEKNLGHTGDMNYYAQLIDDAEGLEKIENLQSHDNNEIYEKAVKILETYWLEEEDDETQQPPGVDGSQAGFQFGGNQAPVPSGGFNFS
UniProt F4JL11: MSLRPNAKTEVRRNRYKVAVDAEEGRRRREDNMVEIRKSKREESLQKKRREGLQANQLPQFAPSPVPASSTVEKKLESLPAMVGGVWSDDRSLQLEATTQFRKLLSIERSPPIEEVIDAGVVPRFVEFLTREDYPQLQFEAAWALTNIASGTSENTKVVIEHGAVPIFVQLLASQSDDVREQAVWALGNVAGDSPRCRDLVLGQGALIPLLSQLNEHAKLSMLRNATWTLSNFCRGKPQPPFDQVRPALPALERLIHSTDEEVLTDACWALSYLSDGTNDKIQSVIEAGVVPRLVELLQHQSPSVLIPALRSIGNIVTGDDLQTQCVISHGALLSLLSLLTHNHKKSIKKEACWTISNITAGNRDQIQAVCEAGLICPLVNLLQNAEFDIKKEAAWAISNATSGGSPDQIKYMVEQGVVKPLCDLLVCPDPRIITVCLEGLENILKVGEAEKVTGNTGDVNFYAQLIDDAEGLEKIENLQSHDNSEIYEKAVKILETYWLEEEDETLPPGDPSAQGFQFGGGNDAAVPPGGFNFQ
UniProt O04294: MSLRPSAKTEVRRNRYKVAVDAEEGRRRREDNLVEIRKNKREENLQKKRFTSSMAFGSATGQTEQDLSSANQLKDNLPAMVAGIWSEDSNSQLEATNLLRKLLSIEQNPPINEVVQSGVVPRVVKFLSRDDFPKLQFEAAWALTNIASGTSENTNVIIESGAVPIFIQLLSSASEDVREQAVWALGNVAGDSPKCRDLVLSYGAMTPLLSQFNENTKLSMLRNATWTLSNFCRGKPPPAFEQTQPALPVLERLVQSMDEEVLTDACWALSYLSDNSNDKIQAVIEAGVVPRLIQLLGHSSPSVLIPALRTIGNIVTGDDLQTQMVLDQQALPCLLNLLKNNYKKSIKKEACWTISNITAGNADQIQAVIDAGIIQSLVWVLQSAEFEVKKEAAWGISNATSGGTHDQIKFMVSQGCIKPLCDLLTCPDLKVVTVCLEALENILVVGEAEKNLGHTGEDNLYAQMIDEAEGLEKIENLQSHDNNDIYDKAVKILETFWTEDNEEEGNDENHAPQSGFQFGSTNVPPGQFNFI
UniProt O80480: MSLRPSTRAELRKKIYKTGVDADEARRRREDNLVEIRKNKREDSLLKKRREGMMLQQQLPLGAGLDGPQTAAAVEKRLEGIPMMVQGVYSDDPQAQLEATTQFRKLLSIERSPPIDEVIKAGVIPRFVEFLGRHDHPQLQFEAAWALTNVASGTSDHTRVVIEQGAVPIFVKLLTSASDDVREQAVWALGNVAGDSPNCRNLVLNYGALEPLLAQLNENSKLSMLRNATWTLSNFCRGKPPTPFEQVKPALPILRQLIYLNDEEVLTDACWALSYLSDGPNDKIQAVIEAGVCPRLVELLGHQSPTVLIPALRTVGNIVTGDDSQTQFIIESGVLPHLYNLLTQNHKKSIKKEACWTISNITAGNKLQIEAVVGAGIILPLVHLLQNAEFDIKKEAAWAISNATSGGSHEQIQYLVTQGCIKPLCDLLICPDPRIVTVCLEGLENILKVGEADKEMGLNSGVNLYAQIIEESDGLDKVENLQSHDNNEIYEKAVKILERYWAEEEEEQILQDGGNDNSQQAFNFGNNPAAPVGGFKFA

Experiments:
[1] = biological target: T1, EIN2C^479–1294 fused to Cerulean (Arabidopsis thaliana) (UniProt Q9S814); assay: FRET or BRET; in planta FLIM-FRET in transiently transformed N. benthamiana epidermal leaf cells; Cerulean fusion as donor, YFP fusions as acceptors; cytosol, ER or nucleus (IMPα5-YFP and IMPα6-YFP: nuclei only)
T1 sequence: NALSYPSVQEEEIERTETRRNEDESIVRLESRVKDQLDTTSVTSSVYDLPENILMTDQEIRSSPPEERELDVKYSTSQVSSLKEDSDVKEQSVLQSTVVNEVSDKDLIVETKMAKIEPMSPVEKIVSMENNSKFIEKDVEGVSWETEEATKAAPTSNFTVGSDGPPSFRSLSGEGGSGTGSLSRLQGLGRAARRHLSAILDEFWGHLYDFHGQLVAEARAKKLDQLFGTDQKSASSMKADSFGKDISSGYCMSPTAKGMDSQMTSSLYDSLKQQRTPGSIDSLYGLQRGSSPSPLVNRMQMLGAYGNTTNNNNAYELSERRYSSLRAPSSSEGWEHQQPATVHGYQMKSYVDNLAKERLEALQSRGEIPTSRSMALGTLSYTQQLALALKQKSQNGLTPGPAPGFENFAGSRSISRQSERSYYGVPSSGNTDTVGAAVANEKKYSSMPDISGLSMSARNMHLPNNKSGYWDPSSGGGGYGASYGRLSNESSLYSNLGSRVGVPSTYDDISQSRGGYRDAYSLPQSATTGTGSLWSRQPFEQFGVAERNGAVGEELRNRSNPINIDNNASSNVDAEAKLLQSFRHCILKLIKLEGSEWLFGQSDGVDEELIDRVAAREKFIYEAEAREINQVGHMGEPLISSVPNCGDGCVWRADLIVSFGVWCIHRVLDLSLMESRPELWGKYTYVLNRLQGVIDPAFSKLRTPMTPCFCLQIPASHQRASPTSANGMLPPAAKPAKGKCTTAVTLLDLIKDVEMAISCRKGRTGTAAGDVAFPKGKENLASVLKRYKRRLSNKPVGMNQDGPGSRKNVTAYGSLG

[2] = biological target: T2, TAMRA‐NOP‐1 (EIN2 NLS peptide, N‐terminally labeled with 5‐TAMRA) (Arabidopsis thaliana); assay: fluorescence polarisation; direct titration: TAMRA-NOP-1 constant at 250 nM, IMPα protein concentration varied; 50 μL samples; LS55 spectrometer; Kd by Logistic Fit in Origin; three independent measurements; both purified
T2 sequence (peptide, 5-TAMRA (5-carboxytetramethylrhodamine) on the N-terminus): LKRYKRRL

Row | binding [1] | binding [2] | Substance
1 | binds | – | IMPα1 fused to YFP (from UniProt Q96321 1-532)
2 | binds | – | IMPα2 fused to YFP (from UniProt F4JL11 1-535)
3 | binds | – | IMPα3 fused to YFP (from UniProt O04294 1-531)
4 | binds | – | IMPα4 fused to YFP (from UniProt O80480 1-538)
5 | – | binds | importin α1 (IMPα1), Arabidopsis thaliana, recombinant (from UniProt Q96321 1-532)
